Binding data for two molecules are collected here from article PMC7386655, “Spontaneous mutations that confer resistance to 2-deoxyglucose act through Hxk2 and Snf1 pathways to regulate gene expression and HXT endocytosis” (PLoS Genetics, 2020).

Sequences of proteins named here, by UniProt entry; tags and fusion partners are left off. A change or cut given only in a name is not applied to a line headed by its entry.
UniProt P32598: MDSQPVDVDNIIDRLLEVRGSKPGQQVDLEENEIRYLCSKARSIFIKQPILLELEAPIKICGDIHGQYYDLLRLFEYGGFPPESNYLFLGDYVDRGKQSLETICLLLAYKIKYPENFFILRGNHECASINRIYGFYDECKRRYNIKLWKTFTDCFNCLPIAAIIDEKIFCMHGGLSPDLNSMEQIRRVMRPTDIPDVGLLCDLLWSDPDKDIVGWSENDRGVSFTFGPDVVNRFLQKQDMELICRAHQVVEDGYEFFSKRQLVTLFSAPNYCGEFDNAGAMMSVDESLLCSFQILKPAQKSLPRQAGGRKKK

Residue numbers refer to the chain shown, from its start. Names and notes keep the numbering of the source. No constants are given. Whether binding was seen depends on the method and setting. Some entries that bind do so weakly or less than the wild type.

Assay in all cases: two-hybrid; yeast two-hybrid; growth on medium with 2% glucose lacking histidine, GAL1-HIS3 reporter; Snf1 and Glc7 fused to the Gal4 DNA binding domain (pGBT9), Reg1 fused to the Gal4 activation domain (pACT2)
One experiment deals with T1, Snf1 (S. cerevisiae) (UniProt P06782).
T1 sequence: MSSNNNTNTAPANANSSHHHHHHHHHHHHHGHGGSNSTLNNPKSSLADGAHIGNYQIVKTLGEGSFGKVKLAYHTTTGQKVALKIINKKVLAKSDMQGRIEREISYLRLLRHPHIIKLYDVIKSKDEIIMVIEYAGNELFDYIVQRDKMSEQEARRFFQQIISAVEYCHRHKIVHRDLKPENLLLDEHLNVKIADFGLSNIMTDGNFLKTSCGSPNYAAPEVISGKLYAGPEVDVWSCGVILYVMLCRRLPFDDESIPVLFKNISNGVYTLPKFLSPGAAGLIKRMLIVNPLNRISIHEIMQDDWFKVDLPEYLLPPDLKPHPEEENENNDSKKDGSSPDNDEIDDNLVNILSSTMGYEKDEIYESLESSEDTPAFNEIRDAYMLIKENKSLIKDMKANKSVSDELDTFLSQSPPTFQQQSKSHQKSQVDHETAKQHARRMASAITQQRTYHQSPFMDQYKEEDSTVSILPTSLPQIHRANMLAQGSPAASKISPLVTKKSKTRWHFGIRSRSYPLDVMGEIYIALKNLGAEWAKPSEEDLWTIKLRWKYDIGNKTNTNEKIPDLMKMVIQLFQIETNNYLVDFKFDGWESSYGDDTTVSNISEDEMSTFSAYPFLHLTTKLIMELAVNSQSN

The next experiment deals with Glc7 (S. cerevisiae) (UniProt P32598).
Experiment [1] addresses Glc7-Q48K (S. cerevisiae) (UniProt P32598).

B1: Reg1 (protein, UniProt Q00816 1-1014)
chain: MSTNLANYFAGKKDIENEHVNRNASHESNSKSDVKISGNDNDNDEDMGPSVSMAVQAKNDDDFHKSTFNLKRTRSMGLLDEYIDPTKKLLGRSDDLYDNDNEYYDNSSNNSSSNSSDDDYDDGYQEHSTSVSPPPADNDSYLIPQDDNDVVVEPERHVDYLSHEWKESEISNSWKYIILKKKKRDVDLVNAARLENASWRTWAKARNNLKTVSPEVVNWSKDSDVTWLYGPIVRDSEGNAQSEEEHDLERGYGSDDENSKRISMPTKNSKSIAAAPKPILKKRTVTEIIEDNALWKLNEARKHMTEMKHASVIMDPNGNKNVHDDFDALAAQVNAQYYHYPKESNSSVSLKSQHSDKKDNSTIPNPVGENSNGGGDKGEEDLHLKSALHVQNNRSTAQSNKSILENSTNDRKANLDQNLNSPDNNRFPSSTSSSNRDNENNSMGLSSILTSNPSEKSNKPTKNRHIHFNDRVEQCMALRYPASQSEDDESDDENKQYVDVNNNANVTTINNNRTPLLAIQHKSIPINSATEHLNKNTSDDDTSSQSSSSSHSDDEEHGGLYINARFSRRSDSGVHSPITDNSSVASSTTSRAHVRPIIKLLPDTTLNYGSDEESDNGEFNGYGNAVSHNVNTSRGYDYIYDYNSVYTGDTSSFLPVDSCDIVDVPEGMDLQTAIADDNASNYEFNNAVESKEKHVPQLHKASANNTTRQHGSHMLLYDDDNYSSSSDSEQQFIEDSQYNSSDDEEEEDDDDQEVDDNHDEGLSLRRTLSLGKSGSTNSLYDLAQPSLSSATPQQKNPTNFTGGKTDVDKDAQLAVRPYPLKRNSSSGNFIFNSDSEEESSSEEEQRPLPANSQLVNRSVLKGSVTPANISSQKKKALPKQPKASDSSQSFRIVNNTPSPAEVGASDVAIEGYFSPRNESIKSVVSGGNMMDHQDHSEMDTLAKGFENCHINNASKLKDKKVDSVQTTRKEASLTDSSNESLHKVVQNARGMASKYLHSWKKSDVKPQENGNDSS
As for B1, the binding entry (with Snf1 (S. cerevisiae); in the experiment with Glc7 (S. cerevisiae); in experiment [1]) was “binds” throughout.

B2: Reg1-P231L (protein, UniProt Q00816 1-1014)
chain: B1 chain with P231L
As to B2, the binding result with Snf1 (S. cerevisiae) is “binds”.
